Data from PMC12645938.
These are yes or no findings as the source states them, for the method shown. Binding seen in cells or lysates may run through a third protein. Some entries that bind do so weakly or less than the wild type.

By UniProt entry, the sequences of proteins in these tests, tags left out.
UniProt P05556: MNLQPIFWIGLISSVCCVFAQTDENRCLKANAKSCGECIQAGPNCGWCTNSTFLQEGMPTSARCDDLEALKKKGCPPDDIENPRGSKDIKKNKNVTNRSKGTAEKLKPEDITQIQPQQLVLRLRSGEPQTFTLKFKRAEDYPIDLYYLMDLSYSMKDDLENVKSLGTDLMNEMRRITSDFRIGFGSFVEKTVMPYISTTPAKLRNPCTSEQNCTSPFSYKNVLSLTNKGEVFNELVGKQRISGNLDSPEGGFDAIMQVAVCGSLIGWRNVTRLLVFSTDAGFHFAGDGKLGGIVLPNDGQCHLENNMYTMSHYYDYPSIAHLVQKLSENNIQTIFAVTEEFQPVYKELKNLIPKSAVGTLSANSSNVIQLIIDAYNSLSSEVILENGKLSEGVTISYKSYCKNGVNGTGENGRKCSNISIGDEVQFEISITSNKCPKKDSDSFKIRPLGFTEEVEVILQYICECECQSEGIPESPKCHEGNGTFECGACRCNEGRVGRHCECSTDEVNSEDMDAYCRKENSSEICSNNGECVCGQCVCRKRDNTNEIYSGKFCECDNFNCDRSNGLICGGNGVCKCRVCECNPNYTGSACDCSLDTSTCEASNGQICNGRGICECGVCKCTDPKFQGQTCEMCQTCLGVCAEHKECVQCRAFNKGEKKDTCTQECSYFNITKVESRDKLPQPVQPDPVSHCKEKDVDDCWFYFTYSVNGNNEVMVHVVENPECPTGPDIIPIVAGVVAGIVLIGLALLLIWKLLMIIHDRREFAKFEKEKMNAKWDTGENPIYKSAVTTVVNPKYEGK

Biological target: endogenous ITGβ1 in HEK293T cells (human (endogenous in HEK293T)) (UniProt P05556)
Test: co-IP; endogenous proteins of confluent HEK293T cells; magnetic beads with anti-MDA5 or anti-ITGβ1 antibody (Fig. 9B)

binding: binds
B1: endogenous MDA5 in HEK293T cells (protein, UniProt Q9BYX4 1-1025)
chain: MSNGYSTDENFRYLISCFRARVKMYIQVEPVLDYLTFLPAEVKEQIQRTVATSGNMQAVELLLSTLEKGVWHLGWTREFVEALRRTGSPLAARYMNPELTDLPSPSFENAHDEYLQLLNLLQPTLVDKLLVRDVLDKCMEEELLTIEDRNRIAAAENNGNESGVRELLKRIVQKENWFSAFLNVLRQTGNNELVQELTGSDCSESNAEIENLSQVDGPQVEEQLLSTTVQPNLEKEVWGMENNSSESSFADSSVVSESDTSLAEGSVSCLDESLGHNSNMGSDSGTMGSDSDEENVAARASPEPELQLRPYQMEVAQPALEGKNIIICLPTGSGKTRVAVYIAKDHLDKKKKASEPGKVIVLVNKVLLVEQLFRKEFQPFLKKWYRVIGLSGDTQLKISFPEVVKSCDIIISTAQILENSLLNLENGEDAGVQLSDFSLIIIDECHHTNKEAVYNNIMRHYLMQKLKNNRLKKENKPVIPLPQILGLTASPGVGGATKQAKAEEHILKLCANLDAFTIKTVKENLDQLKNQIQEPCKKFAIADATREDPFKEKLLEIMTRIQTYCQMSPMSDFGTQPYEQWAIQMEKKAAKEGNRKERVCAEHLRKYNEALQINDTIRMIDAYTHLETFYNEEKDKKFAVIEDDSDEGGDDEYCDGDEDEDDLKKPLKLDETDRFLMTLFFENNKMLKRLAENPEYENEKLTKLRNTIMEQYTRTEESARGIIFTKTRQSAYALSQWITENEKFAEVGVKAHHLIGAGHSSEFKPMTQNEQKEVISKFRTGKINLLIATTVAEEGLDIKECNIVIRYGLVTNEIAMVQARGRARADESTYVLVAHSGSGVIEHETVNDFREKMMYKAIHCVQNMKPEEYAHKILELQMQSIMEKKMKTKRNIAKHYKNNPSLITFLCKNCSVLACSGEDIHVIEKMHHVNMTPEFKELYIVRENKALQKKCADYQINGEIICKCGQAWGTMMVHKGLDLPCLKIRNFVVVFKNNSTKKQYKKWVELPITFPNLDYSECCLFSDED
